At least one structure is not confirmed: it was looked up by name or label, or the drawing left a doubt.
Columns and labels:
presenilin 1 mRNA = assay: Presenilin 1 mRNA in SHSY5Y cells treated with DHA; assay type: cell-based; conditions: 48 hours, 0.3 μg/ml DHA complexed 3:1 to BSA vs BSA alone, p<0.05
amyloid = conditions: transgenic mice with mutation in the APP gene; cited from earlier work

SMILES: CC/C=C\C/C=C\C/C=C\C/C=C\C/C=C\C/C=C\CCC(=O)O [DHA, docosahexaenoic acid]
- Presenilin 1 mRNA (presenilin 1 mRNA): significantly reduced
- Amyloid levels and plaque burden (amyloid): reduces
